From publication PMC10163288
Some of the results follow.

B1: il2ra_site1_2b5i_sap_14_mot_HHH_b2_07920_000000157_0001_21_37_H_._HHH_b1_06326_0001_0000100002_0000001_0_0001_af2pred_dldesign_0_af2pred (protein)
chain: SSSSSIRKLIEYAKKEAEELLAEGDTEDVQNILAQLQELRDKYNDPEIEKAIAELTAALLGSSSS
B2: il2ra_site2_3nfp_sap_23_mot_HHH_b1_04762_000000120_0001_42_54_H_._HHH_b2_04281_af2_0001_0000100003_0000001_0_0001 (protein)
chain: SSSTEEEIEELLREVERLLKEGDLTEAAHLLMRASELVVELGDEELIRKVLELFEELARAYSSSS
B3: il2ra_site1_1z92_normal_mot_HHH_b2_05238_af2_000000252_0001_38_55_H_._HHH_b2_02957_af2_0001_0000400015_0000001_0 (protein)
chain: SSSSSTEEALEILAKALKRAERLGNERSLRRIAEFLLRQARDLGDEEAERFAEEIEEKVDSSSSS
B4: il2ra_site2_2erj_sap_16_mot_8a316d4779eb53efc793250774d75e68_0001_af2_000000043_0001_18_32_H_._HHH_b2_05644_af2_0001_0000700025_0000001_1_0001_af2pred_0001_1_af … (protein)
chain: SSSSDELERVVEELVEELGLDEEAKRILEAAVENLEEAGYNKELAKKWLEFAAESLARSKSSSSS
B5: il2ra_site2_3nfp_sap_20_mot_HHH_b2_03377_000000137_0001_25_41_H_._HHH_b1_08018_0001_0000100006_0000001_0_0001 (protein)
chain: DEAELAHFVFERGDWEAFAAVAELFTLLAHGDPEAEELVREALELLKEDPREVERLLKEIARELH
B6: il2ra_site1_3nfp_sap_11_mot_HHH_b2_07336_000000112_0001_1_16_H_._3b037dd319665088be879e1661a9b2f3_0001_0001_0000500036_0000001_0_0001 (protein)
chain: DDELQARHIEKLLKRAAGVESVEVEVSNNEIEVTFKGNDEAVKRAKEAVKILAEMLGIPVEIETE
B7: il2ra_site1_1z92_normal_mot_74bb627b62bb877a56547cee6c7a6e54_0001_000000029_0001_1_13_H_._HHH_b1_02142_0001_0000300047_0000001_0 (protein)
chain: SSSSDLERAAVELVSRIAAEFGLDWEQLKELDELAVELAERGLSEEEIREELEELAEELRSSSSS
B8: il2ra_site2_3nfp_normal_mot_HHH_b1_06646_000000103_0001_1_16_H_._15a03ae7649ebbac21f4683df9edff8e_0001_0001_0000200007_0000001_0 (protein)
chain: PVEELVREVAEILGDPRFKETVEEFLEELEKEGNEDSLEYIEAALALIVEFNDPELAERLLELLD
B9: il2ra_site1_2b5i_normal_mot_HHH_b1_01495_af2_000000196_0001_42_56_H_._774661e93fca9bd06ae450e02c4594cb_0001_1_0001_0000500020_0000001_0_af2pred_dldesign_0_af2pr … (protein)
chain: SVVDRTIEWLDRAGHPELAAACRRIAELCAAGRPEEARKLVEEAKKKYKSKFHKKLLEEVYEECL
B10: il2ra_site1_3nfp_normal_mot_HHH_b1_03004_000000248_0001_1_18_H_._HHH_b1_01445_0001_0000100007_0000001_0 (protein)
chain: SSSSSNAELRRRIDELLKELARITDPHEFEELVEEIEELIEEAGDENARRLLEELRKLFNSSSSS
B11: il2ra_site2_2erj_sap_23_mot_HHH_eva_0050_af2_000000198_0001_43_62_H_._HHH_b1_06467_0001_0000100002_0000001_0_0001 (protein)
chain: SSSSSNLRELYELANKIMHALQRNDEELARELIEEAREAIERLGSDNARELLEWLRREVNSSSSS
B12: il2ra_site2_3nfp_normal_mot_HHH_b2_05401_000000221_0001_38_56_H_._HHH_b2_03321_0001_0000200011_0000001_0 (protein)
chain: SSSSSEEEFLHSVARAAEKLAEHLEDPELREELERLAEELKEEGDPELAHEIFELAIEIFSSSSS
B13: il2ra_site1_2b5i_normal_mot_HHH_b1_08426_af2_000000046_0001_39_52_H_._HHH_b1_04114_af2_0001_0000100006_0000001_0_af2pred_dldesign_0_af2pred (protein)
chain: SSSSSDEDEEKVYDLADEALRIRKEDPEKAREILEEALKLAKAAGNAKLVAEVEALLASISSSSS
B14: il2ra_site2_3nfp_normal_mot_b0be08dbeb19038e97ce33ab5425b229_0001_000000099_0001_16_33_H_._HHH_b2_02124_0001_0000500034_0000001_0_af2pred_0001_1_af2pred_swapped (protein)
chain: SSSSNEEDKLLLVERLAELAIEHTSDEEEQEELEELLEELERKGDPRIAEELARIASEILLSSSS
B15: il2ra_site2_2erj_sap_24_mot_HHH_b1_07975_000000000_0001_41_57_H_._HHH_b1_08466_af2_0001_0000800020_0000001_0_0001_af2pred_0001_af2pred (protein)
chain: SSSSSEEEEELKEFIEELVREFGLSEEVQKELEEIARFALEQGIDEEDIKKWLKLFAEETSSSSS
B16: il2ra_site2_3nfp_normal_mot_HHH_b1_01243_000000091_0001_42_57_H_._5f20bd37ef72b54d9d5808571b4331c8_0001_0001_0000500071_0000001_0 (protein)
chain: GPSELIYELFKEDEELAFLLWALRAEVAITNDPRLEELLREALELIEEGNPEEAKEVLREALRLP
B17: il2ra_site1_1z92_sap_21_mot_HHH_b2_01043_000000048_0001_39_52_H_._HHH_b2_05877_0001_0000200009_0000001_0_0001_af2pred_0001_af2pred_1_swapped (protein)
chain: SFAEALEELIEELGNPEEAAEELVKLLEKEGVPPRDALLLVLKAAKRLGDPEVRRLIEELLRELD
B18: il2ra_site2_3nfp_normal_mot_HHH_b1_01480_000000265_0001_40_57_H_._HHH_b1_04954_0001_0000300015_0000001_0 (protein)
chain: SSSSNLLELVLLAAKRFAEEANDPEVLREIEELEEEYERHGDPRYVREAFELAQELAEKLSSSSS

target: il2ra, P01589; test: yeast display titration

Apparent Kd, inactive:
B1 no binding seen
B2 no binding seen
B3 no binding seen
B4 no binding seen
B5 no binding seen
B6 no binding seen
B7 no binding seen
B8 no binding seen
B9 no binding seen
B10 no binding seen
B11 no binding seen
B12 no binding seen
B13 no binding seen
B14 no binding seen
B15 no binding seen
B16 no binding seen
B17 no binding seen
B18 no binding seen

Looked up one by one from the entries so far:
Apparent Kd, inactive:
B9 no binding seen
B13 no binding seen
